Experiment [1] addresses T1, endogenous hCLOCK (human (endogenous in HeLa)) (UniProt O15516).
T1 sequence: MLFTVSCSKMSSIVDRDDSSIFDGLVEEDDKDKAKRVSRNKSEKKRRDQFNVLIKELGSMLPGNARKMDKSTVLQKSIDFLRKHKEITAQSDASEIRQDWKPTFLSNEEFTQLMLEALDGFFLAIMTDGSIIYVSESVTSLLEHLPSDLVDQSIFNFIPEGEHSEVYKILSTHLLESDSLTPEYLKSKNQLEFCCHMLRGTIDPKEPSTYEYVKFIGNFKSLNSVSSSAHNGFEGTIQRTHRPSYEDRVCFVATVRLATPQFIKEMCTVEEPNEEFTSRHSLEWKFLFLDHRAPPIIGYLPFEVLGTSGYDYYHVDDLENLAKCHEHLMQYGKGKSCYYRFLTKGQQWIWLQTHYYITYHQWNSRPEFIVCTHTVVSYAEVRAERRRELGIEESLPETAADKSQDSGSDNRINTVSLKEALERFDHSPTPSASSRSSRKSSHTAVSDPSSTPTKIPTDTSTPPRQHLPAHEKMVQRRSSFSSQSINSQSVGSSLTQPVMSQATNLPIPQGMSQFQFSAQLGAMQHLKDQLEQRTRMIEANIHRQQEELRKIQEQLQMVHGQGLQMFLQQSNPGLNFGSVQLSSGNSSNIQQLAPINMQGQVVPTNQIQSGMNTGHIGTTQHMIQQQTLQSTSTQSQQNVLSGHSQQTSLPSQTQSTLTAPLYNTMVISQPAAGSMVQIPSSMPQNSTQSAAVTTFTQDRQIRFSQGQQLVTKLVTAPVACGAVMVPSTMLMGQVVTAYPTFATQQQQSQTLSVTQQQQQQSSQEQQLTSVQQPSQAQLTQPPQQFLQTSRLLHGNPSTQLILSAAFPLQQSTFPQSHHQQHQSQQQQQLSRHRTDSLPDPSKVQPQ
Nature of the experiment: co-IP; immunoprecipitation from HeLa lysates: Myc-tagged hBMAL1b as bait, endogenous hCLOCK on the blot, with increasing co-expression of Flag-tagged hBMAL1a; IP buffer 50 mM HEPES pH 7.4, 150 mM NaCl, 1% NP-40, 0.5% Na-deoxycholate, 4 °C.

The chains behind the UniProt entries cited, without tags or fusion partners. Where a name states a change or a piece, a line headed by the entry shows the natural chain unless it says otherwise. A line that says so, or that is headed by a name, gives the form on record, which may keep a tag or linker.
UniProt O00327: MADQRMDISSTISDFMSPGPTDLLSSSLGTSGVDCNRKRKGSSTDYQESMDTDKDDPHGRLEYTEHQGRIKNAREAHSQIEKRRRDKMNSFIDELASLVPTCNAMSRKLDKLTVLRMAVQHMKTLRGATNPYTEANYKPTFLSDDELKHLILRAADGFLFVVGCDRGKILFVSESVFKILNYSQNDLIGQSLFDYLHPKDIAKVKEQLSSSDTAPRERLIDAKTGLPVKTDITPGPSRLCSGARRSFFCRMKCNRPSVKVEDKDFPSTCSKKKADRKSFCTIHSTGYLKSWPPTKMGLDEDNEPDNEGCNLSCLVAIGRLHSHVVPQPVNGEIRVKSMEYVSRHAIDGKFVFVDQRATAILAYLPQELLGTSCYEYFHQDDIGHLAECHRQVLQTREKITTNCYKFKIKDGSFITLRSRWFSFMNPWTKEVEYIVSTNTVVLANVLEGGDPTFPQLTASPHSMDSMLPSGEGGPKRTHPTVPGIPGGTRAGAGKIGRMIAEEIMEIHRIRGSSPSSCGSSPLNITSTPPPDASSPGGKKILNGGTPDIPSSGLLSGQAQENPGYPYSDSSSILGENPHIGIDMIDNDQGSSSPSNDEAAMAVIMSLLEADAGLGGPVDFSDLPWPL
Myc-tagged hBMAL1a (O00327-1, form named): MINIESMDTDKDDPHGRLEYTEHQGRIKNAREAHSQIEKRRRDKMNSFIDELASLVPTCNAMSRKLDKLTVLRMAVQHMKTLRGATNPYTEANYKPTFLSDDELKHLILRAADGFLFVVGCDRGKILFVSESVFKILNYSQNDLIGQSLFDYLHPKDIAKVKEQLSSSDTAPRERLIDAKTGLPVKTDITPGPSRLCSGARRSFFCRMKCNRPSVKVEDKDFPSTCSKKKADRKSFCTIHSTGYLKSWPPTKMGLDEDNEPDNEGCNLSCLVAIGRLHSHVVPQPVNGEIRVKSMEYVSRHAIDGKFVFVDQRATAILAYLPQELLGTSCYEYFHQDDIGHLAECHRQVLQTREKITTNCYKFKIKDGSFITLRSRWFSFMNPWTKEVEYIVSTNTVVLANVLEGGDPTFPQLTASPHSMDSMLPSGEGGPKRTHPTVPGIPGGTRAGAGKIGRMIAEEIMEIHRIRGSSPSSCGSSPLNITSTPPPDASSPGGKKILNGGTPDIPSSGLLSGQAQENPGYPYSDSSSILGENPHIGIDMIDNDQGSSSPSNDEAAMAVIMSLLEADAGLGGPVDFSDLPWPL

Experiment [2] addresses T2, YFP N-terminus (YN)-tagged hCLOCK (human) (UniProt O15516).
T2 sequence: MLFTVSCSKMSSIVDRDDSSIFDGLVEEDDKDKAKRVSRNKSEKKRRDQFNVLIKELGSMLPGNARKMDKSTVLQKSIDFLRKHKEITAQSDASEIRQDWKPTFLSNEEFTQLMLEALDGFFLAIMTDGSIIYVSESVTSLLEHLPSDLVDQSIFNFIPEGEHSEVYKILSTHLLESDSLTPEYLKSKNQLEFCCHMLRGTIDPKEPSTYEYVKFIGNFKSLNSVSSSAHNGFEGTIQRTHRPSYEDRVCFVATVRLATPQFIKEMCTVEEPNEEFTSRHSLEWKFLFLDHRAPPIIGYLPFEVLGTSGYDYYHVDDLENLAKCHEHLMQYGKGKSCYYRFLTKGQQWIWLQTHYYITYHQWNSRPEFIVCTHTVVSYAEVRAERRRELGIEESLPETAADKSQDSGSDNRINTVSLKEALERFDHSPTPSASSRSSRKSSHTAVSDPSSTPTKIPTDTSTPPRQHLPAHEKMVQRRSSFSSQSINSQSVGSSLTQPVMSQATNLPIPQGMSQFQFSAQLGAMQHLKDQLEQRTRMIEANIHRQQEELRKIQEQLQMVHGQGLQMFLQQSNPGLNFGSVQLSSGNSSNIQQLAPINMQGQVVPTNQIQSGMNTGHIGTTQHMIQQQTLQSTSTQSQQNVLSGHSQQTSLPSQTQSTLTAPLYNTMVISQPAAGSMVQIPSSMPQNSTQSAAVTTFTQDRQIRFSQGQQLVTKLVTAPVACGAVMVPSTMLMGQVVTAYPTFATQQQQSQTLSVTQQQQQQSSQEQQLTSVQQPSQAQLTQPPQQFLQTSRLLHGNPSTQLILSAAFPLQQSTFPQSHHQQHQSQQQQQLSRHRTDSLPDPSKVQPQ
Kind of experiment: split reporter; BiFC with YN (YFP 1-173) and YC (YFP 173-238) fusions co-transfected into HeLa cells; fixed 24 h after transfection; confocal microscopy.

Experiment [3] has as its target T3, C-terminal CFP (CC)-tagged hCLOCK (human) (UniProt O15516).
T3 sequence: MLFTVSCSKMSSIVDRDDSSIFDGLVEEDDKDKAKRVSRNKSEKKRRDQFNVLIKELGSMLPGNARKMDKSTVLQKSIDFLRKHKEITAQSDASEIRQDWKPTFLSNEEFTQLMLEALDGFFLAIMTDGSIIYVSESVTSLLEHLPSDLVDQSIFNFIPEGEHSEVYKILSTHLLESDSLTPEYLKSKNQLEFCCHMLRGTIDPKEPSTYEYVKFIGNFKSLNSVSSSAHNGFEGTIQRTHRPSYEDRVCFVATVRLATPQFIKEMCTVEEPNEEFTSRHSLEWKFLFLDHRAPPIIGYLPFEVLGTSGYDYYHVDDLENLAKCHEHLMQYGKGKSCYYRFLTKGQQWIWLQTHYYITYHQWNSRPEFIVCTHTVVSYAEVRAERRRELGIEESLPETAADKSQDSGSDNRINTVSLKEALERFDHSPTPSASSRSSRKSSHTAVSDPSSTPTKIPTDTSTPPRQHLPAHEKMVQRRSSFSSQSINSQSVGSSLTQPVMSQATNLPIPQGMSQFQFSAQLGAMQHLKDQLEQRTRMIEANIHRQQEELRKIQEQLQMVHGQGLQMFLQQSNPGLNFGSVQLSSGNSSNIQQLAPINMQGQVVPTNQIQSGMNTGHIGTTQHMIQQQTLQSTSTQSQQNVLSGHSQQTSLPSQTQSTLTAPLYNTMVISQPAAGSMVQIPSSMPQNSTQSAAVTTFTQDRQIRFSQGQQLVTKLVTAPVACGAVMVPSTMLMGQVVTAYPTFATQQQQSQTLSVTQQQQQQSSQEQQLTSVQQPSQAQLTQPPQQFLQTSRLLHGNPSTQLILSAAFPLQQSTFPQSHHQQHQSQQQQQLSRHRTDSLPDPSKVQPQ
Nature of the experiment: split reporter; dual-colour BiFC in HeLa cells: CN-hBmal1b and CC-hClock co-transfected with increasing amounts of YN-hBmal1a; CFP and YFP signals read 24 h after transfection.

Experiment [4] has as its target YFP C-terminus (YC)-tagged hBMAL1b (human) (UniProt O00327). Nature of the experiment: split reporter; BiFC with YN (YFP 1-173) and YC (YFP 173-238) fusions co-transfected into HeLa cells; fixed 24 h after transfection; confocal microscopy.
Experiment [5] has as its target Myc-tagged hBMAL1b (human) (UniProt O00327). Nature of the experiment: co-IP; immunoprecipitation from HeLa lysates: Myc-tagged hBMAL1b as bait, endogenous hCLOCK on the blot, with increasing co-expression of Flag-tagged hBMAL1a; IP buffer 50 mM HEPES pH 7.4, 150 mM NaCl, 1% NP-40, 0.5% Na-deoxycholate, 4 °C.
For experiment [6] the target is unchanged. Nature of the experiment: co-IP; called a pull down assay; Myc-tagged hBMAL1a or hBMAL1b expressed in cells, blot for hCLOCK (Supplementary Fig. S3).
For experiment [7], the target named is Myc-tagged hBMAL1a (human) (UniProt O00327). The experiment is described as above.

No constants are given. Whether binding was seen depends on the method and setting. In cells and extracts the contact can be indirect. Some binding calls cover weakened binding; strength is not graded here. For part of these data: Where a sequence is shown, tags or fusion partners need not be part of it.

On to “Flag-tagged hBMAL1a (from UniProt O00327-1 1-583)”, for which the binding result in experiment [1] is “binds”.

For the molecule “YFP C-terminus (YC)-tagged hBMAL1b (from UniProt O00327 1-626)”, the binding entry in experiment [2] is on record as “binds”.

In the case of “N-terminal CFP (CN)-tagged hBMAL1b (from UniProt O00327 1-626)”, the binding entry in experiment [3] is reported as “binds”.

“YN-Flag-fused hBMAL1a (from UniProt O00327-1 1-583)”: the binding entry in experiment [4] and in experiment [3] was “binds” in each case.

For “YFP C-terminus (YC)-tagged hBMAL1a (from UniProt O00327-1 1-583)”, the binding entry in experiment [2] is reported as “binds”.

B1: endogenous hCLOCK (protein, UniProt O15516 1-846)
chain: MLFTVSCSKMSSIVDRDDSSIFDGLVEEDDKDKAKRVSRNKSEKKRRDQFNVLIKELGSMLPGNARKMDKSTVLQKSIDFLRKHKEITAQSDASEIRQDWKPTFLSNEEFTQLMLEALDGFFLAIMTDGSIIYVSESVTSLLEHLPSDLVDQSIFNFIPEGEHSEVYKILSTHLLESDSLTPEYLKSKNQLEFCCHMLRGTIDPKEPSTYEYVKFIGNFKSLNSVSSSAHNGFEGTIQRTHRPSYEDRVCFVATVRLATPQFIKEMCTVEEPNEEFTSRHSLEWKFLFLDHRAPPIIGYLPFEVLGTSGYDYYHVDDLENLAKCHEHLMQYGKGKSCYYRFLTKGQQWIWLQTHYYITYHQWNSRPEFIVCTHTVVSYAEVRAERRRELGIEESLPETAADKSQDSGSDNRINTVSLKEALERFDHSPTPSASSRSSRKSSHTAVSDPSSTPTKIPTDTSTPPRQHLPAHEKMVQRRSSFSSQSINSQSVGSSLTQPVMSQATNLPIPQGMSQFQFSAQLGAMQHLKDQLEQRTRMIEANIHRQQEELRKIQEQLQMVHGQGLQMFLQQSNPGLNFGSVQLSSGNSSNIQQLAPINMQGQVVPTNQIQSGMNTGHIGTTQHMIQQQTLQSTSTQSQQNVLSGHSQQTSLPSQTQSTLTAPLYNTMVISQPAAGSMVQIPSSMPQNSTQSAAVTTFTQDRQIRFSQGQQLVTKLVTAPVACGAVMVPSTMLMGQVVTAYPTFATQQQQSQTLSVTQQQQQQSSQEQQLTSVQQPSQAQLTQPPQQFLQTSRLLHGNPSTQLILSAAFPLQQSTFPQSHHQQHQSQQQQQLSRHRTDSLPDPSKVQPQ
With B1, the binding entry in experiment [5], in experiment [6] and in experiment [7] was “binds” throughout.

These data come from publication PMC6283877.
